Several values for one entry are separate records, joined by “and”; a condition that tells them apart may be missing. Identical values can stand only once. This list was built around the results that the source calls inconclusive (neither active nor inactive); the mix of calls is not that of the screen. For some of these results: Potencies of inconclusive entries are doubtful fits and often do not repeat. Activity calls are given as the source filed them. How the source made its calls: active means hit-call score of the fitted dose curve at least 0.9, where 1 is the maximum; inconclusive means response in the unintended direction; inactive means score below 0.9.
Key:
[1] = biological target: Nuclear receptor subfamily 1 group I member 2 (Homo sapiens) (UniProt O75469); experiment: ATG_PXR_TRANS: Attagene TRANS-FACTORIAL HepG2 Assay for human Pregnane X Receptor (PXR) (AID 2283008)
Summary of the method: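 Trans-factorial format: exogenous NR-Gal4 fusion activity, not endogenous factor, in transfected human HepG2 liver cells. After 24 h dosing, RNA isolated, reverse-transcribed, amplified and resolved by capillary electrophoresis; induction scored versus DMSO.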

Sequences of proteins named here, by UniProt entry; tags and fusion partners are left off. A change or cut given only in a name is not applied to a line headed by its entry.
UniProt O75469: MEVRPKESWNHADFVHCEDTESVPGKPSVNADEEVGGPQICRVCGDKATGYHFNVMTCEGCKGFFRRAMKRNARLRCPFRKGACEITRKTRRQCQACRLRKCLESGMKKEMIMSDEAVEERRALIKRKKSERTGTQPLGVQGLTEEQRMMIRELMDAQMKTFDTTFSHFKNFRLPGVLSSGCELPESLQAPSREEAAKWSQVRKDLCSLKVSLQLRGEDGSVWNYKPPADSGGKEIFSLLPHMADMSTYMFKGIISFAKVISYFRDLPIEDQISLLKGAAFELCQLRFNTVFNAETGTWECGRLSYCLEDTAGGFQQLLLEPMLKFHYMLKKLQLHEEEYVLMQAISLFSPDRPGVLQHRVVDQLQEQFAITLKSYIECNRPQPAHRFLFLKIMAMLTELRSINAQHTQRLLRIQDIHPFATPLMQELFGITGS
UniProt P33261, whole entry, looked up: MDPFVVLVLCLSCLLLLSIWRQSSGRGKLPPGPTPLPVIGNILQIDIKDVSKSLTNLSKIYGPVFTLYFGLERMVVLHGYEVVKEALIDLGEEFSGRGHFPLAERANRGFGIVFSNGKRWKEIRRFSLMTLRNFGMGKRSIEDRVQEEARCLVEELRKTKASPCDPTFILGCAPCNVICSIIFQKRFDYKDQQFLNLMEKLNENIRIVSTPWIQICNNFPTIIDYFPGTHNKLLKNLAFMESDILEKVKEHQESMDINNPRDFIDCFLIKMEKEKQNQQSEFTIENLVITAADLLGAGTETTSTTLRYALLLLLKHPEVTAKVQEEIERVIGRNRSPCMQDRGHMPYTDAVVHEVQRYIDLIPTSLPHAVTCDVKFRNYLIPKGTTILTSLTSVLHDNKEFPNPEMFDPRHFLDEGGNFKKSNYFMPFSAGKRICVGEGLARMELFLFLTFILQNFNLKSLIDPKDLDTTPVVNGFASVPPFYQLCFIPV
UniProt P04406: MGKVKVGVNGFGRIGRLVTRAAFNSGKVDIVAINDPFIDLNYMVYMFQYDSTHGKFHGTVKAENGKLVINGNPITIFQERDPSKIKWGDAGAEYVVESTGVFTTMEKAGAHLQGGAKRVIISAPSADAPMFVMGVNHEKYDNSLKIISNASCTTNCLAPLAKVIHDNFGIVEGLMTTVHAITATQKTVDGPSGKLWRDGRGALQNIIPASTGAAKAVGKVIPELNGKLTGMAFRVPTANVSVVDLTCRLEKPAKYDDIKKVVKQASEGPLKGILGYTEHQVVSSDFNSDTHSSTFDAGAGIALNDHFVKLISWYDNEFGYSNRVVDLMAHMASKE
UniProt P11712, whole entry, looked up: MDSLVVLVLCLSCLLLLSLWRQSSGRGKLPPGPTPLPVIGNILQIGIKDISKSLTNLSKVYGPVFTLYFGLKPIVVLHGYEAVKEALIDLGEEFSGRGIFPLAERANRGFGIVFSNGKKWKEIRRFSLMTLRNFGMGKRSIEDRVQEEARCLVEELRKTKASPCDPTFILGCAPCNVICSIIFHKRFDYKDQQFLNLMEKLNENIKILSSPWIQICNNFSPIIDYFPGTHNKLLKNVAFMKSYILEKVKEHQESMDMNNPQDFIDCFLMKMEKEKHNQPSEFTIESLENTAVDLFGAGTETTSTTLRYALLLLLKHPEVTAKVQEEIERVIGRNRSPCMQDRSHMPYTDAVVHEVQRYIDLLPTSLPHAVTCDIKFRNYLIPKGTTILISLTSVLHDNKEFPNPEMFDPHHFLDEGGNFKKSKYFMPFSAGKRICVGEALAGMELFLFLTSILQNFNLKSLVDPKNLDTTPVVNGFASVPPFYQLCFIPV
UniProt Q9UNQ0: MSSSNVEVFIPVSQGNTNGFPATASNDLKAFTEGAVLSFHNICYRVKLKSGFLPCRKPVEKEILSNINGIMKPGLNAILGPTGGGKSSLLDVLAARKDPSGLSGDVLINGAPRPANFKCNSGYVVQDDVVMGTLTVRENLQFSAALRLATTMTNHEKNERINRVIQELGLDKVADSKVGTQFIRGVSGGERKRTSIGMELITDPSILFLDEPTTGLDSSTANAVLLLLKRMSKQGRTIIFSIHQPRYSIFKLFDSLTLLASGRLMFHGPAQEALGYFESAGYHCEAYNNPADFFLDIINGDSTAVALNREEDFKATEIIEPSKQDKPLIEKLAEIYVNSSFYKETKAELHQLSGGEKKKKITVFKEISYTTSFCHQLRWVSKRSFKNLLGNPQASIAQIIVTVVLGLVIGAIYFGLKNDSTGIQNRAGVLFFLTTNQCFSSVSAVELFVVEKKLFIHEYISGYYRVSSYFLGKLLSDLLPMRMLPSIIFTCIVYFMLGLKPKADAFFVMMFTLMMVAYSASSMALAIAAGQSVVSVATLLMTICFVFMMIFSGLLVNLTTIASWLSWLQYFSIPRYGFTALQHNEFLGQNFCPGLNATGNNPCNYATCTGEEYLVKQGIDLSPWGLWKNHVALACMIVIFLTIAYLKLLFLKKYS
UniProt P04150: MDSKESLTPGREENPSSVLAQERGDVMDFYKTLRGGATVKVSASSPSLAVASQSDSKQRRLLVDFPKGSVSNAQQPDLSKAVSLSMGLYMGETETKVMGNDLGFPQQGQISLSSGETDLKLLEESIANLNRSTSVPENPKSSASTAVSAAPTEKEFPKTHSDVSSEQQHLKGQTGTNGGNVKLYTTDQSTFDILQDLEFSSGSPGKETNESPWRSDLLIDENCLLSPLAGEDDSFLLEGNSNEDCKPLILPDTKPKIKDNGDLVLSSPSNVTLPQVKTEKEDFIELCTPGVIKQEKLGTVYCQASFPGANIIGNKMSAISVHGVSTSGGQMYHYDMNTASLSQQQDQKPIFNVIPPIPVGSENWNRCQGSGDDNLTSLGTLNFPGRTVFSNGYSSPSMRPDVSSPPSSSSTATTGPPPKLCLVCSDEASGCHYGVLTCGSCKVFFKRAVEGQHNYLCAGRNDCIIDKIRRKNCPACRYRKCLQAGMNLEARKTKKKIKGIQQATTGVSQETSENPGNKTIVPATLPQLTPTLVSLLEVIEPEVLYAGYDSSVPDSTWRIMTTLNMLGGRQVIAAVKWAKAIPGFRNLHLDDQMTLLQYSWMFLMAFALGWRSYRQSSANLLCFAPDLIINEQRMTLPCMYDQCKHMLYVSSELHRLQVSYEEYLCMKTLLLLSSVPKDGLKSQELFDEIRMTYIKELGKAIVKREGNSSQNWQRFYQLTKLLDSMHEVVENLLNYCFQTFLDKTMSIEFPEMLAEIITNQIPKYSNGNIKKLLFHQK
UniProt Q01717: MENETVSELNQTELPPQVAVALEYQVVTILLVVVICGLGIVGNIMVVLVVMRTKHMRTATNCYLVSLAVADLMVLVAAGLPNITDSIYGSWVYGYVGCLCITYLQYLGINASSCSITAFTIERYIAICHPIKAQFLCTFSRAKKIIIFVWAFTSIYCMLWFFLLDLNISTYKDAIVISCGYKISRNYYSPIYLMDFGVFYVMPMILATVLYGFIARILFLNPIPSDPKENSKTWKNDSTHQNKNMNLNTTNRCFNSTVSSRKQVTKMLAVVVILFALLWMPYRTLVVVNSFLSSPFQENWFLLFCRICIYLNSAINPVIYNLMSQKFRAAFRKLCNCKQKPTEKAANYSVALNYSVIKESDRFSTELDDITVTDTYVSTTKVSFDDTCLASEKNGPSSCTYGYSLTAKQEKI

[2] = Tanguay_ZF_120hpf_PIG_legacy: (Legacy) Oregon State University Tanguay Lab 120 Hour Post-fertilization zebrafish Assay for Pigmentation Malformation (AID 2283650)
Summary of the method: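 Endpoint is incidence of abnormal pigmentation at 120 hpf in dechorionated 5D zebrafish exposed singly from 6 hpf at 28C, DMSO vehicle at 0.64%. Embryos dying by 24 or 120 hpf are excluded from scoring.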

[3] = read-out: Cytochrome P450 2C19 (Homo sapiens) (UniProt P33261); experiment: CLD_CYP2C19_6hr: CellzDirect (CLD) Gene Expression Assay for xenobiotic metabolism (CYP2C19) at 6 hours (AID 2283678)
Summary of the method: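 CYP2C19 transcript induction was quantified by quantitative nuclease protection assay with chemiluminescent read-out, 6 h after dosing. Cells were primary human hepatocytes from two donor preparations, given fresh dosing solutions daily in 0.2% DMSO vehicle. Activity was relative to DMSO.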

[4] = read-out: Glyceraldehyde-3-phosphate dehydrogenase (Homo sapiens) (UniProt P04406); experiment: CLD_GAPDH_6hr: CellzDirect (CLD) Gene Expression Assay for Baseline Control (Glyceraldehyde 3-phosphate dehydrogenase) at 6 hours (AID 2283681);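 on outcome: active means increased signal relative to DMSO vehicle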
Summary of the method: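 GAPDH baseline-control readout from qNPA (S1 nuclease digestion, probe hybridization, chemiluminescence) in lysates of cultured human hepatocytes harvested 6 h post-dosing. Chemicals tested at multiple concentrations versus 0.2% DMSO vehicle; microscopy-based cytotoxicity flagged yes/no.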

[5] = read-out: HMG-CoA synthase (HMGCS2), HMGCS2 (gene 3158); experiment: CLD_HMGCS2_6hr: CellzDirect (CLD) Gene Expression Assay for HMG-CoA synthase (HMGCS2) at 6 hours (AID 2283682);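 further: actives raise HMGCS2 transcript above the 0.2% DMSO vehicle baseline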
Summary of the method: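 HMGCS2 transcript induction read by quantitative nuclease protection with chemiluminescence, 6 h after dosing of primary human hepatocytes. Baseline was 0.2% DMSO vehicle; phase-contrast morphology gave a yes/no cytotoxicity annotation.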

[6] = read-out: Cytochrome P450 2C19 (Homo sapiens) (UniProt P33261); experiment: CLD_CYP2C19_24hr: CellzDirect (CLD) Gene Expression Assay for xenobiotic metabolism (CYP2C19) at 24 hours (AID 2283687);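 on outcome: activity means mRNA induction above DMSO vehicle baseline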
Summary of the method: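 CYP2C19 mRNA was quantified by qNPA chemiluminescence after 24 h of daily dosing of cultured human primary hepatocytes from two donors; vehicle was 0.2% DMSO, and increases over DMSO baseline were fitted.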

[7] = read-out: Cytochrome P450 2C9 (Homo sapiens) (UniProt P11712); experiment: CLD_CYP2C9_24hr: CellzDirect (CLD) Gene Expression Assay for xenobiotic metabolism (CYP2C9) at 24 hours (AID 2283688);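 on AC50: potency for induction meaning a rise in CYP2C9 mRNA over DMSO vehicle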
Summary of the method: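 Induction of CYP2C9 mRNA was quantified by quantitative nuclease protection assay (chemiluminescence), gain of signal versus 0.2% DMSO vehicle, 24 h after dosing. Human primary hepatocytes (two donors) received fresh chemical daily at multiple concentrations; morphology-based cytotoxicity flagged yes/no.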

[8] = read-out: Glyceraldehyde-3-phosphate dehydrogenase (Homo sapiens) (UniProt P04406); experiment: CLD_GAPDH_24hr: CellzDirect (CLD) Gene Expression Assay for Baseline Control (Glyceraldehyde 3-phosphate dehydrogenase) at 24 hours (AID 2283692)
Summary of the method: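 GAPDH baseline-control readout: qNPA chemiluminescent mRNA signal in human primary hepatocytes harvested 24 h after daily dosing, normalised to 0.2% DMSO with positive fitting direction; cytotoxicity annotated by phase-contrast morphology.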

[9] = read-out: Cytochrome P450 2C19 (Homo sapiens) (UniProt P33261); experiment: CLD_CYP2C19_48hr: CellzDirect (CLD) Gene Expression Assay for xenobiotic metabolism (CYP2C19) at 48 hours (AID 2283700)
Summary of the method: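 CYP2C19 mRNA induction read by chemiluminescent quantitative nuclease protection assay after 48 h, with fresh compound added daily for two days to cultured human liver hepatocytes. Activity fitted upward against 0.2% DMSO vehicle.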

[10] = read-out: Broad substrate specificity ATP-binding cassette transporter ABCG2 (Homo sapiens) (UniProt Q9UNQ0); experiment: CLD_ABCG2_48hr: CellzDirect (CLD) Gene Expression Assay for ABC Transporter (ABCG2) at 48 hours (AID 2283704);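 on AC50: potency for induction of ABCG2 mRNA above the DMSO baseline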
Summary of the method: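 ABCG2 transcript measured at 48 h by quantitative nuclease protection (chemiluminescent) and fitted for increase relative to 0.2% DMSO. Hepatocyte cultures from separate donors got fresh compound daily over two days; morphology annotated cytotoxicity.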

[11] = read-out: alkyl and aryl transferase (GSTA2), GSTA2 (gene 2939); experiment: CLD_GSTA2_48hr: CellzDirect (CLD) Gene Expression Assay for alkyl and aryl transferase (GSTA2) at 48 hours (AID 2283708);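 further: active means mRNA induction above DMSO vehicle baseline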
Summary of the method: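 GSTA2 mRNA quantified by qNPA chemiluminescence in human primary hepatocyte lysates after 48 h of daily fresh chemical dosing. Increases fitted against 0.2% DMSO vehicle baseline; cytotoxicity from morphology annotated yes/no.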

[12] = ATG_Hpa5_TRANS: Attagene TRANS-FACTORIAL HepG2 Assay for human GAL4-Hpa5 Hepatocyte Transcription Factor Basal Promoter (AID 2282975); settings: HepG2 Attagene GAL4-Hpa5 transcription reporter
Summary of the method: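 Gain-of-signal versus DMSO is fitted for reporter mRNA quantified by RT-PCR and capillary electrophoresis after 24 h exposure. This endpoint is an internal background marker in transiently transfected HepG2 cells carrying GAL4-UAS reporter units.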

[13] = biological target: Glucocorticoid receptor (Homo sapiens) (UniProt P04150); experiment: ATG_GR_TRANS: Attagene TRANS-FACTORIAL HepG2 Assay for human Glucocorticoid Receptor (GR) (AID 2282978); settings: HepG2 Attagene TRANS GR reporter, mRNA transcription;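 further: activators score as hits since higher reporter transcript over DMSO is fitted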
Summary of the method: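 In this trans-factorial format, exogenous NR-GAL4 chimeric proteins in transfected HepG2 cells regulate GAL4-UAS reporter transcription. After 24 h treatment, reporter mRNA induction relative to DMSO is read by RT-PCR and capillary electrophoresis.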

[14] = CLD_ACTIN_6hr: CellzDirect (CLD) Gene Expression Assay for Baseline Control (Actin) at 6 hours (AID 2283676);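 on outcome: active means increased actin mRNA relative to DMSO vehicle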
Summary of the method: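 Baseline actin transcript level measured by qNPA (S1 nuclease protection, chemiluminescence) in human hepatocyte cultures 6 h after chemical exposure; 0.2% DMSO vehicle as reference, cytotoxicity noted from morphology.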

[15] = read-out: ABC Transporter (ABCB11), ABCB11 (gene 8647); experiment: CLD_ABCB11_48hr: CellzDirect (CLD) Gene Expression Assay for ABC Transporter (ABCB11) at 48 hours (AID 2283697)
Summary of the method: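 Induction of ABCB11 mRNA relative to 0.2% DMSO, measured at 48 h by qNPA chemiluminescence. Cultured human hepatocytes (two donors) received fresh dosing solutions at several concentrations on two consecutive days.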

[16] = CCTE_Deisenroth_AIME_384WELL_CTox_Active: Cytotoxicity Assessment (CTOX) in CCTE's 384-well Estrogen Receptor Transactivation Assay with AIME metabolic competence (metabolism positive), Deisenroth Lab (AID 2284037);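 further: chemicals first conditioned 2 h by alginate-bound induced rat liver S9 before cells; activity means signal loss indicating cell death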
Summary of the method: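 VM7Luc4E2 breast cells received medium pre-incubated 2 h with chemical over alginate microspheres holding induced male Sprague Dawley rat liver S9; viability read 24 h later by protease-substrate fluorescence. Loss of signal, bidirectional fit, 0.002–200 uM.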

[17] = CCTE_Deisenroth_AIME_384WELL_CTox_Inactive: Cytotoxicity Assessment (CTOX) in CCTE's 384-well Estrogen Receptor Transactivation Assay without AIME metabolic competence (metabolism negative), Deisenroth Lab (AID 2284039);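 further: cell viability via live-cell protease substrate cleaved to fluorescent probe; cells exposed 24 h to medium preincubated 2 h with alginate-water beads without S9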
Summary of the method: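 Metabolism-negative arm: chemicals (10-point, 0.002 - 200 uM) preincubated 2 h with alginate-water lids, medium moved onto VM7Luc4E2 cells for 24 h. Fluorescent live-cell protease readout; bidirectional curve fit.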

[18] = read-out: organic anion transporter (SLCO1B1), SLCO1B1 (gene 10599); experiment: CLD_SLCO1B1_24hr: CellzDirect (CLD) Gene Expression Assay for organic anion transporter (SLCO1B1) at 24 hours (AID 2283690)
Summary of the method: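 SLCO1B1 mRNA induction read at 24 h by quantitative nuclease protection assay (chemiluminescence), analyzed against DMSO baseline. Human hepatocyte cultures from separate donors received fresh dosing solutions daily; vehicle 0.2% DMSO; cytotoxicity flagged by phase-contrast morphology.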

[19] = biological target: rat Thyrotropin Releasing Hormone Receptor (TRH), Trhr (gene 25570) (UniProt Q01717); experiment: NVS_GPCR_rTRH: NovaScreen (NVS) G Protein-Coupled Receptor Assay for rat Thyrotropin Releasing Hormone Receptor (TRH) (AID 2283329);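 further: hit means lower bound tracer signal versus DMSO baseline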
Summary of the method: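 Rat forebrain membrane prep, radioligand displacement, filter scintillation readout at 4 h. Single conc 25 uM, duplicate; actives retested as concentration series. DMSO = negative control/baseline.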

COC(=O)N(C(=O)N1CO[C@@]2(C(=O)OC)Cc3cc(Cl)ccc3C2=N1)c1ccc(OC(F)(F)F)cc1
AC50 [1]: active: 5.9 µM
outcome [2]: inactive
AC50 [3]: inconclusive: 3.97 µM
outcome [4]: inactive
AC50 [5]: inconclusive: 8.77 nM
AC50 [6]: inconclusive: 7.16 µM
AC50 [7]: inconclusive: 20 µM
AC50 [8]: inconclusive: 6.04 µM
AC50 [9]: inconclusive: 20 µM
AC50 [10]: inconclusive: 6.05 µM
AC50 [11]: inconclusive: 20 µM

CN1COCN(Cc2cnc(Cl)s2)C1=N[N+](=O)[O-]
AC50 [12]: inconclusive: 50 µM
outcome [13]: inactive
outcome [14]: inactive
outcome [3]: inactive
AC50 [4]: inconclusive: 20 µM
outcome [6]: inactive
AC50 [8]: inconclusive: 20 µM
AC50 [15]: inconclusive: 20 µM
AC50 [16]: inconclusive: 100 µM
AC50 [17]: inconclusive: 0.000621 µM

CCOc1cc(C(C)(C)C)ccc1C1COC(c2c(F)cccc2F)=N1 (centres undefined)
AC50 [2]: inconclusive: 133 µM
AC50 [14]: inconclusive: 2.74 µM
AC50 [3]: inconclusive: 0.354 µM
AC50 [6]: inconclusive: 37.2 µM
outcome [7]: inactive
AC50 [18]: inconclusive: 20 µM
AC50 [8]: inconclusive: 7.27 µM
AC50 [15]: inconclusive: 0.428 µM
AC50 [9]: inconclusive: 11.8 µM
outcome [10]: inactive
AC50 [11]: inconclusive: 3.97 µM

CN(C)N=O
outcome [13]: inactive
AC50 [1]: inconclusive: 27.8 µM
AC50 [19]: inconclusive: 1.7 µM
AC50 [2]: inconclusive: 78.5 µM
AC50 [16]: inconclusive: 0.0002 µM
AC50 [17]: inconclusive: 0.0002 µM

O=C(Nc1ccccc1)Nc1ccnc(Cl)c1
AC50 [3]: inconclusive: 38.2 µM
outcome [5]: inactive
AC50 [6]: inconclusive: 33 µM
AC50 [7]: inconclusive: 37.2 µM
AC50 [8]: inconclusive: 20 µM
AC50 [15]: inconclusive: 20 µM
AC50 [9]: inconclusive: 36.9 µM
AC50 [11]: inconclusive: 20 µM

— PubChem BioAssay (EPA / NIEHS)
